No constants are given. Whether binding was seen depends on the method and setting. For part of these data: In cells and extracts the contact can be indirect. Some entries that bind do so weakly or less than the wild type. Sequences can lack the tags named with a protein.
Legend:
[1] = biological target: T1, TAP-HOG1 fusion protein with the full N-terminal TAP tag (71 kDa), in transgenic Arabidopsis protein extract (Arabidopsis thaliana) (UniProt O23255); assay: TAP pull-down, SDS-PAGE, N-terminal sequencing
T1 sequence: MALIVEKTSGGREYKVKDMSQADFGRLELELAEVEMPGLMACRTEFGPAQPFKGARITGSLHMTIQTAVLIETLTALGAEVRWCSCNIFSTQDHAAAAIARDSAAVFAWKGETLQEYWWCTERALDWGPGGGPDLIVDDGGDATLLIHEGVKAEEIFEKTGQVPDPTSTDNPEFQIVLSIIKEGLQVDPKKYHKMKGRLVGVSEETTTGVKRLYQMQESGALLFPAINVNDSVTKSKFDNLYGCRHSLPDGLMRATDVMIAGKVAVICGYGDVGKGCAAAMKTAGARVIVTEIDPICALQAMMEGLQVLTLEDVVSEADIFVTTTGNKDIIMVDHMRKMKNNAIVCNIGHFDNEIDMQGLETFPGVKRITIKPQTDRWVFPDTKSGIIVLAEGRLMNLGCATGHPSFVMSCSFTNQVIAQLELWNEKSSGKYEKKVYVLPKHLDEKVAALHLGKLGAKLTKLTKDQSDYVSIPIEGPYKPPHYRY

Protein sequences, listed by entry. Tags and fused reporters are not part of them. Lines headed by an entry give the natural chain unless they say otherwise; changes in a name come on top.
UniProt O23255: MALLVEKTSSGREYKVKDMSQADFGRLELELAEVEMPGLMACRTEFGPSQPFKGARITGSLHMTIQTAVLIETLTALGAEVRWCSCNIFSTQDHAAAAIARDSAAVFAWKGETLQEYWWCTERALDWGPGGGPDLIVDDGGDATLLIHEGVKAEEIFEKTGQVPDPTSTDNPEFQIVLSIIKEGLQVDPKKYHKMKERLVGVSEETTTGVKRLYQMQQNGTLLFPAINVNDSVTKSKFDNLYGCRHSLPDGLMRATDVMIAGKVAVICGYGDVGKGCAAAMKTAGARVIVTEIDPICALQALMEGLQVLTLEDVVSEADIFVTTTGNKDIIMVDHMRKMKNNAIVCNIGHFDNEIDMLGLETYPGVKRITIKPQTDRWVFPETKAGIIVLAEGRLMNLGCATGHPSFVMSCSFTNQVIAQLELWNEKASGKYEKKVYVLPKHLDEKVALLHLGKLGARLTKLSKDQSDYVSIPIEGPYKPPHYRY

[2] = biological target: T1, TAP-HOG1 fusion protein with the full N-terminal TAP tag (71 kDa), in transgenic Arabidopsis protein extract (Arabidopsis thaliana); assay: TAP tag purification of the protein complex from plants
[3] = biological target: T1, TAP-HOG1 fusion protein with the full N-terminal TAP tag (71 kDa), in transgenic Arabidopsis protein extract (Arabidopsis thaliana); assay: TAP pull-down from plant total protein extract, SDS-PAGE, N-terminal sequencing

Measured: binding

B1: endogenous AHP1 co-purified from Arabidopsis total protein extract (approximately 24 kDa band) (protein, Arabidopsis thaliana, UniProt Q9ZNV9 1-154, looked up)
chain: MDLVQKQKSLQDYTKSLFLEGILDSQFLQLQQLQDESNPDFVSQVVTLFFQDSDRILNDLSLSLDQQVVDFKKVDPHVHQLKGSSSSIGAQRVKNACVVFRSFCEQQNVEACHRCLQQVKQEYYLVKNRLETLFKLEQQIVASGGMIPAVELGF
binds: all assays above
